Results are given in words; binding and its absence hold for the method and conditions named. Binding seen in cells or lysates may run through a third protein. A result given as binding can be weak or reduced; the word gives no strength. Where a sequence is shown, tags or fusion partners need not be part of it.
Biological target: FLAG-PPP1R21 CT (C-terminal truncation of PPP1R21) (human)
Assay: co-IP; HEK293T cells cotransfected with full-length or truncated FLAG-PPP1R21 along with Myc-PP1cs and HA-AEG-1 for 48 h; whole-cell lysates (0.5% CHAPS lysis buffer); IP with the anti-FLAG antibody; immunoblotting with anti-Myc and anti-HA

binding: binds
B1: HA-AEG-1 WT (astrocyte elevated gene-1, HA-tagged) (protein, UniProt Q86UE4 1-582)
chain: MAARSWQDELAQQAEEGSARLREMLSVGLGFLRTELGLDLGLEPKRYPGWVILVGTGALGLLLLFLLGYGWAAACAGARKKRRSPPRKREEAAAVPAAAPDDLALLKNLRSEEQKKKNRKKLSEKPKPNGRTVEVAEGEAVRTPQSVTAKQPPEIDKKNEKSKKNKKKSKSDAKAVQNSSRHDGKEVDEGAWETKISHREKRQQRKRDKVLTDSGSLDSTIPGIENTITVTTEQLTTASFPVGSKKNKGDSHLNVQVSNFKSGKGDSTLQVSSGLNENLTVNGGGWNEKSVKLSSQISAGEEKWNSVSPASAGKRKTEPSAWSQDTGDANTNGKDWGRSWSDRSIFSGIGSTAEPVSQSTTSDYQWDVSRNQPYIDDEWSGLNGLSSADPNSDWNAPAEEWGNWVDEERASLLKSQEPIPDDQKVSDDDKEKGEGALPTGKSKKKKKKKKKQGEDNSTAQDTEELEKEIREDLPVNTSKTRPKQEKAFSLKTISTSDPAEVLVKNSQPIKTLPPATSTEPSVILSKSDSDKSSSQVPPILQETDKSKSNTKQNSVPPSQTKSETSWESPKQIKKKKKARRET
